{"source": "patent US20250352505A1", "about": "“COMPOSITIONS AND METHODS OF TREATING RESPIRATORY SYNCYTIAL VIRUS” (University of South Florida, priority 2023, published 2025)", "experiment": "Interconversion of 6 and 7 after reversed-phase HPLC separation", "assay_type": "physicochemical", "settings": "over 24 h after separation by reversed-phase HPLC", "note": "At least one structure is not confirmed: it was looked up by name or label, or the drawing left a doubt.", "data": [{"smiles": "CC(=O)OC1CC2(C)C=C3C(CC2C2(C)CCCC(C)(C)C12)OC1C(C)C(=O)CC3C1O", "note": "(stereo not shown) [Compound 6, Suberitenone I]", "values": [{"measurement": "equilibrium mixture ratio 6:7", "value": "~3:1"}]}]}
